# In PubChem BioAssay AID330 (DTP/NCI, 2004):
# The list is a part of this screen's results and no random one: it gathers some chemical classes. Other doses and runs of a compound may be missing. T/C is the treated group as % of the vehicle group. Where survival is the endpoint, the PubChem record calls one and a half times the control and up active, and a quarter to a half above the control has no call in these data; cut-offs in other NCI protocols can differ. Schedule codes are those of the source, taken here to give the interval after Q, in days (D) or hours (H), and the number of doses after X. Some entries hold several experiments; their values stand side by side, smallest first. Some T/C values are marked as having no survivor count here; that says nothing about deaths at the dose.
# Tested on: P388 leukemia ip, CD2F1 mice, survival T/C
# Assay: NCI In Vivo Anticancer Drug Screen. Data for tumor model P388 Leukemia (intraperitoneal) in CD2F1 (CDF1) mice
# Conditions: T/C endpoint: median survival time, higher T/C = longer survival
# [1] = dose: 6.0 mg/kg/injection, schedule: Q04DX003 (ip), vehicle: saline with Tween-80
# [2] = dose: 12.5 mg/kg/injection, schedule: Q04DX003 (ip), vehicle: saline with Tween-80
# [3] = dose: 25.0 mg/kg/injection, schedule: Q04DX003 (ip), vehicle: saline with Tween-80
# [4] = dose: 33.0 mg/kg/injection, schedule: Q04DX003 (ip), vehicle: saline with Tween-80
# [5] = dose: 50.0 mg/kg/injection, schedule: Q04DX003 (ip), vehicle: saline with Tween-80
# [6] = dose: 12.5 mg/kg/injection, schedule: Q01DX009 (ip), vehicle: saline with Tween-80
# [7] = dose: 50.0 mg/kg/injection, schedule: Q01DX009 (ip), vehicle: saline with Tween-80
smiles,measurement,setting,value
COc1cccc(N(CCCl)CCCl)c1OC,T/C,"dose: 1.5 mg/kg/injection, schedule: Q04DX003 (ip), vehicle: saline with Tween-80",109 % of control [survivor count not shown]
same,T/C,"dose: 3.0 mg/kg/injection, schedule: Q04DX003 (ip), vehicle: saline with Tween-80",109 % of control [survivor count not shown]
same,T/C,[1],118 % of control [survivor count not shown]
same,T/C,"dose: 6.25 mg/kg/injection, schedule: Q04DX003 (ip), vehicle: saline with Tween-80",128 % of control [survivor count not shown]
same,T/C,[2],127 [survivor count not shown] and 138 % of control [survivor count not shown]
same,T/C,"dose: 18.75 mg/kg/injection, schedule: Q01DX009 (ip), vehicle: saline with Tween-80",160 % of control [survivor count not shown]
same,T/C,[3],136 % of control [survivor count not shown]
same,T/C,[4],122 % of control [survivor count not shown]
same,T/C,"dose: 37.5 mg/kg/injection, schedule: Q01DX009 (ip), vehicle: saline with Tween-80",160 % of control [survivor count not shown]
same,T/C,[5],"136 [survivor count not shown], 157 [survivor count not shown], 159 % of control [survivor count not shown]"
same,T/C,"dose: 75.0 mg/kg/injection, schedule: Q01DX009 (ip), vehicle: saline with Tween-80",210 % of control [survivor count not shown]
same,T/C,"dose: 75.0 mg/kg/injection, schedule: Q04DX003 (ip), vehicle: saline with Tween-80",181 % of control [survivor count not shown]
same,T/C,"dose: 100.0 mg/kg/injection, schedule: Q04DX003 (ip), vehicle: saline with Tween-80",143 [survivor count not shown] and 176 % of control [survivor count not shown]
same,T/C,"dose: 200.0 mg/kg/injection, schedule: Q04DX003 (ip), vehicle: saline with Tween-80",160 % of control [survivor count not shown]
ClCCN1[C@@H](CCl)CC[C@@H]1c1ccccc1,T/C,"dose: 1.56 mg/kg/injection, schedule: Q01DX005 (ip), vehicle: distilled water + alcohol",116 % of control
same,T/C,"dose: 3.12 mg/kg/injection, schedule: Q01DX005 (ip), vehicle: distilled water + alcohol",128 and 133 % of control
same,T/C,"dose: 6.25 mg/kg/injection, schedule: Q01DX005 (ip), vehicle: distilled water + alcohol",121 and 142 % of control
O=C(O)Cc1c[nH]c2ccc(N(CCCl)CCCl)cc12,T/C,"dose: 0.14 mg/kg/injection, schedule: Q01DX009 (ip), vehicle: saline with Tween-80",120 % of control [survivor count not shown]
same,T/C,"dose: 0.22 mg/kg/injection, schedule: Q01DX009 (ip), vehicle: saline with Tween-80",134 % of control [survivor count not shown]
same,T/C,"dose: 0.33 mg/kg/injection, schedule: Q01DX009 (ip), vehicle: saline with Tween-80",149 % of control [survivor count not shown]
same,T/C,"dose: 0.5 mg/kg/injection, schedule: Q01DX009 (ip), vehicle: saline with Tween-80",163 % of control [survivor count not shown]
same,T/C,"dose: 2.6 mg/kg/injection, schedule: Q04DX003 (ip), vehicle: saline with Tween-80",185 % of control [survivor count not shown]
same,T/C,"dose: 4.0 mg/kg/injection, schedule: Q04DX003 (ip), vehicle: saline with Tween-80",180 % of control [survivor count not shown]
same,T/C,[1],220 % of control [survivor count not shown]
same,T/C,"dose: 9.0 mg/kg/injection, schedule: Q04DX003 (ip), vehicle: saline with Tween-80",110 % of control [survivor count not shown]
C[N+](CCCl)(CCCl)Cc1ccc([N+](=O)[O-])cc1,T/C,"dose: 1.56 mg/kg/injection, schedule: Q01DX009 (ip), vehicle: saline",116 % of control [survivor count not shown]
same,T/C,"dose: 2.0 mg/kg/injection, schedule: Q04DX003 (ip), vehicle: saline",127 % of control [survivor count not shown]
same,T/C,"dose: 3.13 mg/kg/injection, schedule: Q01DX009 (ip), vehicle: saline with Tween-80",120 % of control [survivor count not shown]
same,T/C,"dose: 3.13 mg/kg/injection, schedule: Q01DX009 (ip), vehicle: saline",126 % of control [survivor count not shown]
same,T/C,"dose: 4.0 mg/kg/injection, schedule: Q04DX003 (ip), vehicle: saline",136 % of control [survivor count not shown]
same,T/C,"dose: 6.25 mg/kg/injection, schedule: Q01DX009 (ip), vehicle: saline with Tween-80",120 % of control [survivor count not shown]
same,T/C,"dose: 6.25 mg/kg/injection, schedule: Q01DX009 (ip), vehicle: saline","121 [survivor count not shown], 145 [survivor count not shown], 148 % of control [survivor count not shown]"
same,T/C,"dose: 8.0 mg/kg/injection, schedule: Q04DX003 (ip), vehicle: saline with Tween-80",136 % of control [survivor count not shown]
same,T/C,"dose: 8.0 mg/kg/injection, schedule: Q04DX003 (ip), vehicle: saline",163 % of control [survivor count not shown]
same,T/C,"dose: 12.0 mg/kg/injection, schedule: Q04DX003 (ip), vehicle: saline with Tween-80",127 % of control [survivor count not shown]
same,T/C,[6],91 % of control [survivor count not shown]
same,T/C,"dose: 12.5 mg/kg/injection, schedule: Q01DX009 (ip), vehicle: saline",140 [survivor count not shown] and 167 % of control [survivor count not shown]
same,T/C,[2],109 % of control [survivor count not shown]
same,T/C,"dose: 18.0 mg/kg/injection, schedule: Q04DX003 (ip), vehicle: saline with Tween-80",140 % of control [survivor count not shown]
same,T/C,[3],86 % of control [survivor count not shown]
O=C(O)c1ccccc1N(CCCl)CCCl,T/C,"dose: 25.0 mg/kg/injection, schedule: Q04DX003 (ip), vehicle: Klucel (hydroxypropylcellulose) (HPC)",130 % of control [survivor count not shown]
same,T/C,"dose: 50.0 mg/kg/injection, schedule: Q04DX003 (ip), vehicle: Klucel (hydroxypropylcellulose) (HPC)",196 % of control [survivor count not shown]
same,T/C,"dose: 100.0 mg/kg/injection, schedule: Q04DX003 (ip), vehicle: Klucel (hydroxypropylcellulose) (HPC)",254 % of control [survivor count not shown]
same,T/C,"dose: 200.0 mg/kg/injection, schedule: Q04DX003 (ip), vehicle: Klucel (hydroxypropylcellulose) (HPC)",126 % of control [survivor count not shown]
Cc1cc(C)c2nc(CN(CCCl)CCCl)[nH]c2c1,T/C,[6],154 % of control [survivor count not shown]
same,T/C,"dose: 25.0 mg/kg/injection, schedule: Q01DX009 (ip), vehicle: saline with Tween-80",154 % of control [survivor count not shown]
same,T/C,[4],177 % of control [survivor count not shown]
same,T/C,[7],113 % of control [survivor count not shown]
same,T/C,[5],163 [survivor count not shown] and 195 % of control [survivor count not shown]
O=Cc1ccc(N(CCCl)CCCl)cc1,T/C,[7],100 [survivor count not shown] and 103 % of control [survivor count not shown]
same,T/C,"dose: 100.0 mg/kg/injection, schedule: Q01DX009 (ip), vehicle: saline with Tween-80",120 [survivor count not shown] and 143 % of control [survivor count not shown]
same,T/C,"dose: 200.0 mg/kg/injection, schedule: Q01DX009 (ip), vehicle: saline with Tween-80",156 [survivor count not shown] and 171 % of control [survivor count not shown]
ClCCN(CCCl)CCSc1nc2ccccc2[nH]1,T/C,"dose: 25.0 mg/kg/injection, schedule: Q01DX001 (ip), vehicle: saline with Tween-80",118 % of control [survivor count not shown]
same,T/C,"dose: 50.0 mg/kg/injection, schedule: Q01DX001 (ip), vehicle: saline with Tween-80",106 % of control [survivor count not shown]
same,T/C,"dose: 100.0 mg/kg/injection, schedule: Q01DX001 (ip), vehicle: saline with Tween-80",102 % of control [survivor count not shown]
O=C(Cl)c1ccc(N(CCCl)CCCl)cc1,T/C,"dose: 100.0 mg/kg/injection, schedule: Q01DX001 (ip), vehicle: Klucel (hydroxypropylcellulose) (HPC)",100 % of control [survivor count not shown]
same,T/C,"dose: 200.0 mg/kg/injection, schedule: Q01DX001 (ip), vehicle: Klucel (hydroxypropylcellulose) (HPC)",106 % of control [survivor count not shown]
same,T/C,"dose: 400.0 mg/kg/injection, schedule: Q01DX001 (ip), vehicle: Klucel (hydroxypropylcellulose) (HPC)",108 % of control [survivor count not shown]
